Data published in PubChem BioAssay AID758 (NMMLSC, 2007).
The whole screen tested about 190,000 compounds, of which about 110 (0.058%) were called active. This list was built around the results that the source calls inconclusive (neither active nor inactive); the mix of calls is not that of the screen.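 How the source made its calls: active means fluorescent GTP binding to Rab7 beads changed by at least 20 points from the 100% baseline, either direction, mostly lower; inconclusive means compound itself probably fluorescent, or too few beads counted; inactive means the rest.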

These molecules were tested on Rab7 GTPase wild type (dog), Bodipy-FL-GTP binding (assay: wildtype dog Rab7 nucleotide binding alteration – biochemical, multiplex bead flow cytometry, primary screen (AID 758;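 further: median green fluorescence of bound Bodipy-FL-GTP per Rab7 bead population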)). Details: GST-Rab7 beads, fluorescent GTP binding, at 10 µM, actives lie on both sides.

Row | Structure (SMILES) | GTP binding activity (percent of control)
1 | CC(Oc1ccc(-c2ccccc2)cc1)C(=O)O (stereo not given) | active: 126% [activator]
2 | O=c1[nH]c(=O)n(Cc2ccccc2Cl)c(O)c1/C=C1/C=CC=N1 | inactive: 90%
3 | C/C(=N\N1CCN(C)CC1)c1c(O)[nH]c(=O)[nH]c1=O | inactive: 97%
4 | C=Cn1ccnc1P(=S)(c1nccn1C=C)C1CCCCC1 | inconclusive: 94%
5 | CCC1(c2ccccc2)C(=O)N(COC)C(=O)N(COC)C1=O | inactive: 103%
6 | Cc1nn(Cc2ccccc2)c(Cl)c1C(=O)O | inconclusive: 116%
7 | Cc1ccc(-c2nc3ccccc3c(=O)n2-c2cc(C)ccn2)cc1 | inconclusive: 96%
8 | Nc1ccc(Br)cc1C(=O)c1ccccc1 | inconclusive: 89%
9 | Cc1nnc(SCc2nc3ccccc3c(=O)n2-c2ccccc2Cl)n1N | inconclusive: 101%
10 | CC(C)N1C(=O)CCC1C(=O)N1CCC2(CC1)OCCO2 (stereo not given) | inconclusive: 90%
11 | CC(C)n1c(=O)c(C=Nc2ccc(F)cc2)c(O)n(Cc2ccco2)c1=O | inactive: 98%
12 | O=C(c1ccco1)c1cn(Cc2ccc(Cl)cc2)c2ccccc12 | inconclusive: 95%
13 | CCOc1ccc(C2SCC(=O)Nc3c2c(C)nn3C2CCOC(C)(C)C2)cc1 (stereo not given) | active: 79%
14 | COc1cc2c(cc1OC)C(C(=O)N1CCC3(CC1)OCCO3)C(c1ccccc1F)N(C)C2=O (stereo not given) | inconclusive: 99%
15 | CSc1ncc(/C=C2/C(=O)NC(=O)N(c3ccc(Cl)cc3)C2=O)cn1 | inactive: 95%
16 | C=CCN1C(=O)/C(=C/c2ccc3c(c2)CCCN3CCC)C(=O)NC1=S | inconclusive: 91%
17 | Cc1sc2ncn(CC(=O)N3CCC4(CC3)OCCO4)c(=O)c2c1C | inconclusive: 103%
18 | Nc1c(C(=O)NCc2ccco2)c2nc3ccccc3nc2n1CCN1CCCCC1 | inconclusive: 93%
19 | CCn1c(NN=O)nc2ccccc21 | inactive: 100%
20 | CN1CC=C(c2c[nH]c3ccccc23)CC1 | inconclusive: 101%
21 | Cc1nn(Cc2ccccc2)c(C)c1C(=O)OCC(=O)Nc1cccc(S(N)(=O)=O)c1 | inconclusive: 103%
22 | COc1ccc(S(=O)(=O)N2CC3CC(C2)c2cccc(=O)n2C3)cc1 (stereo not given) | inactive: 103%
23 | CC(=NCc1ccc(F)cc1)c1c(O)n(C)c(=O)n(C)c1=O | inconclusive: 103%
24 | CCC(C)NC(=O)c1c(N)n(CCCOC)c2nc3ccccc3nc12 (stereo not given) | inactive: 99%

Row | Structure (SMILES) | GTP binding activity (percent of control)
25 | Cc1ccc(NP(=O)(Oc2ccccc2F)Oc2ccccc2F)cc1 | inconclusive: 107%
26 | O=C(COc1ccc(Br)cc1)N1CCN(C2CCCC2)CC1 | inconclusive: 104%
27 | COc1cc(C(=S)N2CCOCC2)cc(OC)c1OC(=O)Cc1ccccc1 | inconclusive: 101%
28 | c1ccc2oc(N3CCNCC3)nc2c1 | inconclusive: 103%
29 | O=C1NC(=S)N(Cc2ccco2)C(=O)/C1=C\c1cccs1 | inconclusive: 77%
30 | COc1ccc(-c2cc(=NCCC(=O)O)c3cc(C)ccc3o2)cc1 | inconclusive: 88%
31 | O=C(/C=C/c1ccccc1)NCCc1cnc[nH]1 | inconclusive: 100%
32 | Cc1ccccc1NC1(C#N)CCCCC1 | inconclusive: 91%
33 | CCOC(=O)c1c(C)n(C(C)C)c2ccc(OC(=O)c3ccc(N4C(=O)CCC4=O)cc3)cc12 | inactive: 98%
34 | O=P(Nc1cccnc1)(Oc1ccccc1Cl)Oc1ccccc1Cl | inconclusive: 96%
35 | COc1cc2c(C(=O)O)c(C)n(C)c2cc1Br | inconclusive: 95%
36 | CCCCCCN1CCN(c2ccc(Cl)cc2)CC1 | inconclusive: 99%
37 | Cc1ccc(-n2c(O)c(C=NC3CCCC3)c(=O)[nH]c2=O)c(C)c1 | inconclusive: 103%
38 | COP(=O)(OC)C(NC(=O)c1ccc(C)cc1)C(Cl)(Cl)Cl (stereo not given) | inactive: 99%
39 | COc1cc2c(cc1O)CC1c3c(cc(O)c(OC)c3-2)CCN1C (stereo not given) | inconclusive: 93%
40 | CCc1nc2ccccc2c(=O)n1-c1ccccc1[N+](=O)[O-] | inconclusive: 102%
41 | O=C(CNS(=O)(=O)c1ccc(Br)s1)N1CCC2(CC1)OCCO2 | inconclusive: 105%
42 | CCCCCCN=Cc1c(O)n(C)c(=O)n(C)c1=O | inactive: 99%
43 | Cc1cccnc1-n1c(-c2ccccc2)nc2ccccc2c1=O | inconclusive: 105%
44 | CC(=NCc1ccc2c(c1)OCO2)c1c(O)n(C)c(=O)n(C)c1=O | inconclusive: 95%
45 | CCN(CC)C(=O)c1ccc(NC(=O)c2cccc(F)c2)cc1 | inconclusive: 100%
46 | CN(C)C(=O)Oc1ccc(Cl)c2ccccc12 | inconclusive: 104%
47 | Cc1cc(/C=C2\C(=O)NC(=O)N(c3cccc(F)c3)C2=O)c(C)n1-c1cc(C(=O)O)cc(C(=O)O)c1 | inconclusive: 89%
48 | N=c1c2c(n(Cc3ccc(Cl)cc3Cl)c3c1CCC3)CCCC2 | inconclusive: 101%

Structures above that contain a COOH group:
Row | Structure (SMILES) | GTP binding activity (percent of control)
1 | CC(Oc1ccc(-c2ccccc2)cc1)C(=O)O (stereo not given) | active: 126% [activator]
6 | Cc1nn(Cc2ccccc2)c(Cl)c1C(=O)O | inconclusive: 116%
30 | COc1ccc(-c2cc(=NCCC(=O)O)c3cc(C)ccc3o2)cc1 | inconclusive: 88%
35 | COc1cc2c(C(=O)O)c(C)n(C)c2cc1Br | inconclusive: 95%
47 | Cc1cc(/C=C2\C(=O)NC(=O)N(c3cccc(F)c3)C2=O)c(C)n1-c1cc(C(=O)O)cc(C(=O)O)c1 | inconclusive: 89%

Continuation:

Row | Structure (SMILES) | GTP binding activity (percent of control)
49 | Cc1cccc(-n2c(O)c(/C=N/Nc3nc4c(c(=O)n(C)c(=O)n4C)n3C)c(=O)[nH]c2=S)c1 | inconclusive: 92%
50 | CN(C)c1ccc(/C=C/C=C2/C(=O)NC(=O)N(c3ccccc3)C2=O)cc1 | inactive: 86%
51 | CN1CSC(=S)N(C)C1 | inconclusive: 95%
52 | CC(C)c1ccc(N2C(=O)NC(=O)/C(=C\c3cnc(-c4ccccc4)nc3)C2=O)cc1 | inconclusive: 92%
53 | O=c1[nH]c(O)c(N=Nc2cc(C(F)(F)F)ccc2Cl)c(=O)[nH]1 | inconclusive: 88%
54 | CCCCn1c(O)c(C(CC)=NCCCN(C)C)c(=O)[nH]c1=O | inconclusive: 101%
55 | O=c1cccc2n1CC1CC2CN(S(=O)(=O)c2ccccc2)C1 (stereo not given) | inconclusive: 102%
56 | COc1cc(/C=C/C(=O)c2c(O)n(CCc3ccccc3)c(=O)[nH]c2=O)ccc1O | inactive: 98%
57 | COc1ccc(CCNCc2ccccn2)cc1OC | inconclusive: 102%
58 | Cc1c(C=O)c2ccccc2n1Cc1ccc(F)cc1 | inconclusive: 96%
59 | Cc1cccc(-n2c(O)c(C=Nc3ccc(Br)cn3)c(=O)[nH]c2=O)c1 | inactive: 99%
60 | Cc1ccc(C(=O)n2cc(CCN3CCS(=O)(=O)CC3)c3ccccc32)cc1 | inconclusive: 93%
61 | COc1cccc(-n2c(O)c(C=NCCN3CCOCC3)c(=O)[nH]c2=O)c1 | inconclusive: 96%
62 | CN1C(=O)N(C)C(=O)C2(Cc3c(ccc4ccccc34)N(C)C2)C1=O | inactive: 96%
63 | CCOc1ccc(N2C(=O)/C(=C\c3cccs3)C(=O)NC2=S)cc1 | inconclusive: 92%
64 | CC(C)Sc1nnc([C@@H](N)Cc2c[nH]c3ccccc23)o1 | inconclusive: 94%
65 | O=C(C1CC(=O)N(C2CCCC2)C1)N1CCC2(CC1)OCCO2 (stereo not given) | inconclusive: 106%
66 | O=C1CN=C(c2ccccc2)c2cc(Br)ccc2N1Cc1cc(=O)n2ccccc2n1 | inconclusive: 174%
67 | Nc1ccc(C2(c3ccc(N)cc3)CN3CCC2CC3)cc1 | inconclusive: 104%
68 | CCCCn1c(O)c(C=NCCN2CCCCC2)c(=O)[nH]c1=O | inactive: 96%
69 | O=C(CSc1ccccc1)N1CCC2(CC1)OCCO2 | inconclusive: 101%
70 | CCC1(c2ccccc2)C(=O)N(C)C(=O)N(C)C1=O | inconclusive: 90%
71 | CN(C)C(Cc1ccccc1)C(=O)c1cccs1 (stereo not given) | inactive: 92% [untreated = 100%, excess cold GTP = 0%]
72 | O=C(c1ccc(N2CC3CC(C2)c2cccc(=O)n2C3)c([N+](=O)[O-])c1)N1CCCCC1 (stereo not given) | inactive: 95%

Row | Structure (SMILES) | GTP binding activity (percent of control)
73 | NS(=O)(=O)c1cccc(N2CCNCC2)c1 | inconclusive: 99%
74 | COCCCN=Cc1c(O)[nH]c(=S)[nH]c1=O | inactive: 104%
75 | COCCCn1c(N)c(C(=O)Nc2sc3c(c2C(=O)OC)CCCC3)c2nc3ccccc3nc21 | inactive: 84%
76 | O=C(CSC1c2ccccc2-c2ccccc21)N/N=C/c1ccccc1O | inactive: 97%
77 | COc1ccc(CC(=O)N2CCN(C)CC2)cc1OC | inconclusive: 106%
78 | COc1cc(OC)cc(C(=O)Nc2ccc(Br)cc2C(=O)c2ccccc2)c1 | inconclusive: 96%
79 | CN1CCN(C(=O)COc2ccc(Oc3ccccc3)cc2)CC1 | inconclusive: 96%
80 | CSCCC(N=Cc1c(O)n(-c2ccc(Br)cc2)c(=O)[nH]c1=O)C(=O)OC(C)(C)C (stereo not given) | inconclusive: 94%
81 | CCCC(C)n1[nH]c(=O)c2c1NC(=O)CSC2c1ccc(OC)c(OC)c1 (stereo not given) | inactive: 100%
82 | CCC(=NCc1ccc2c(c1)OCO2)c1c(O)n(C)c(=O)n(C)c1=O | inconclusive: 95%
83 | CN1C2CCC1CC(=NO)C2 | inactive: 94%
84 | COC(=O)c1cncn1C(C)c1ccccc1 (stereo not given) | inconclusive: 99%
85 | Cc1cc(C)c(NC2=NCCCS2)c(C)c1 | inconclusive: 96%
86 | CCOCCCn1c(N)c(C(=O)Nc2sc3c(c2C(=O)OC)CCCC3)c2nc3ccccc3nc21 | inactive: 88%
87 | CCN(CC)c1ccc(N=Cc2c(O)n(Cc3ccccc3)c(=O)[nH]c2=O)cc1 | inconclusive: 103%
88 | OC(C#CCN1CCOCC1)(c1ccccc1)C1CCCC1 (stereo not given) | inconclusive: 100%
89 | CCOC(=O)c1c(/N=C/C2C(=O)NC(=S)NC2=O)sc2c1CCC2 | inconclusive: 92%
90 | CC(C)OP(=O)(OC(C)C)C(O)c1ccc(Br)cc1 (stereo not given) | inconclusive: 102%
91 | COc1cc2[nH]c(=O)n(-c3ccc(C)cc3)c(=O)c2cc1OC | inactive: 100%
92 | N=C1c2ccccc2CN1NC(=O)c1ccc(F)cc1 | inconclusive: 101%
93 | COC(=O)c1c(C)[nH]c(C(=O)C(C)[N+]23CCN(CC2)CC3)c1C (stereo not given) | inactive: 99%
94 | COc1ccc(C2NCCc3[nH]cnc32)cc1 (stereo not given) | inactive: 106%
95 | O=[N+]([O-])c1ccc(C2C3C(c4ccccc4)=NC4(CCCC4)N32)cc1 (stereo not given) | inactive: 96%
